The values that follow come from PubChem BioAssay AID1487 (National Center for Advancing Translational Sciences (NCATS), 2009).

This is one part of the list. The main result of the screen is listed elsewhere. These columns were measured beside it and carry no call. Most of these compounds were active or inconclusive in the main read-out, so they are no random draw. The note in brackets gives the kind of curve behind each potency; many fits are weak.

The assay in a line: qHTS Assay for Modulators of Lamin A Splicing. Particulars: HeLa LMNA splicing GFP/RFP minigene ratio, 48 h. The method, boiled down:
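Read-out is the ratio of GFP to DsRed2 object intensity, acquired by 488 nm laser-scanning cytometry on HeLa lamin A-EGFP minigene reporter cells. Compound incubation 48 hrs at 37 °C in Opti-MEM with 2% FBS; DMSO 0.5% final.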
In general terms: In qHTS, concentration-response curves come from the screen itself.

Where [1] appears, read: measured here: GFP splicing reporter channel.
[2] abbreviates: measured here: RFP viability control channel.

Broadly, the AC50 is the concentration giving half of the maximal activity seen. Take `COc1ccc(NC(=O)c2ccc(-c3ccc(C)c4ccccc34)o2)cc1`: the AC50 under setting [1] was 17.8 µM [rising, single point] and the AC50 under setting [2] is 12.6 µM [rising, partial curve]. For `Cc1nn(CC(=O)Nc2ccc(Cl)c(S(=O)(=O)N(C)C)c2)c(C)c1[N+](=O)[O-]`, the AC50 under setting [2] was 15.8 µM [rising, single point]. The same measure, in the same setting: then `CCc1nnc(NC(=O)CSc2nnc(-c3cc4ccccc4cc3O)n2CC)s1`, with 12.6 µM [rising, single point]; and `COc1cc(C2C3=C(CC(C)(C)CC3=O)OC(N)=C2[N+](=O)[O-])ccc1O` (stereo not drawn), with 35.5 µM [rising, single point]. Take `COc1cccc(/C=C/C(=O)OCC(=O)Nc2cccc(S(=O)(=O)N3CCOCC3)c2)c1OC`: the AC50 reads like this: under setting [1], 0.501 µM [rising, single point]; under setting [2], 0.00447 µM [rising, full curve, poor fit]. Take `CCOc1cc(C2C(C(=O)OC(C)C)=C(C)NC3=C2C(=O)CCC3)cc([N+](=O)[O-])c1O` (stereo not drawn): the AC50 under setting [1] is 11.2 µM [falling, single point]. Take `O=C(CCn1nc(-c2ccccc2)c2ccccc2c1=O)NCC1CCCO1` (stereo not drawn): the AC50 is 0.355 µM [rising, full curve] under setting [1] and 1.58 µM [rising, partial curve, poor fit] under setting [2]. `c1ccc(-c2nc3ccccc3[nH]2)nc1`: the AC50 runs as follows: under setting [1], 0.0562 µM [falling, partial curve, poor fit]; under setting [2], 0.0501 µM [falling, full curve, poor fit]. `O=C(NCCO)c1cccc(Nc2nc(-c3ccccc3)c3cc(Cl)ccc3n2)c1`: the AC50 under setting [2] is 0.0224 µM [falling, single point]. Turning to `c1csc(CNc2ccnc(-c3ccoc3)n2)c1`, the AC50 was 8.91 µM [falling, partial curve, poor fit] under setting [1] and 14.1 µM [falling, partial curve, poor fit] under setting [2]. Regarding `CCOC(=O)N1CCN(C(=O)CSCC(=O)Nc2nc(-c3cccs3)cs2)CC1`, the AC50 under setting [2] is 15.8 µM [rising, single point]. As to `O=c1nc2sc3ccccc3n2c(=O)n1-c1cccc(Cl)c1`, under setting [2], the AC50 is 17.8 µM [rising, single point]. Turning to `Cc1[nH]n2c(=O)c3c(nc2c1-c1ccc(F)cc1)CCCC3`, the concentration at half-maximal activity (AC50) was 35.5 µM [falling, single point] under setting [1] and 17.8 µM [falling, single point] under setting [2]. As for `Cc1ccc(CN(c2ccc(C(=O)NCc3cccnc3)cc2)S(C)(=O)=O)cc1`, under setting [2], the AC50 is 31.6 µM [rising, single point]. With `COc1ccccc1NS(=O)(=O)c1cccc(NC(=O)NC2CCCCC2)c1`, the AC50 under setting [2] was 1 µM [rising, partial curve]. As for `CC1CCN(C(=S)Nc2ccc(SC(F)F)cc2)CC1`, the AC50 reads like this: under setting [1], 5.01 µM [rising, partial curve, poor fit]; under setting [2], 14.1 µM [rising, partial curve]. Regarding `Cc1ccc(C(=O)C[n+]2cc(-c3ccccc3)n3c2CCCCC3)cc1`, the AC50 was 3.16 µM [rising, single point] under setting [1] and 3.16 µM [rising, full curve] under setting [2]. `Cc1cc(C)nc(N/N=C/c2cccc3ccccc23)n1`: the AC50 under setting [2] is 25.1 µM [rising, single point].

Consider `O=C(O)CCCCCn1c(SCc2cc(=O)n3ccccc3n2)nc2ccsc2c1=O`, for which the half-maximal activity concentration (AC50) was 0.562 µM [falling, full curve] under setting [1] and 1.12 µM [falling, partial curve] under setting [2].

Regarding `O=C(CSc1nc(Nc2ccccc2)nc(N2CCOCC2)n1)Nc1ccc2c(c1)OCCO2`, the AC50 under setting [1] is 17.8 µM [rising, partial curve, poor fit] and the AC50 under setting [2] is 7.94 µM [rising, partial curve, poor fit]. As for `COc1ccc(/C=N/Nc2nnc(-c3ccccc3)c(=O)[nH]2)cc1`, under setting [2], the AC50 was 5.62 µM [rising, partial curve]. Consider `O=C(N/N=C/c1cccc(Oc2ccccc2)c1)c1cc[n+]([O-])cc1`, for which the AC50 under setting [2] is 0.00447 µM [falling, full curve, poor fit]. Turning to `Cc1cc2cc(CNC(=S)Nc3ccc(OC(F)(F)F)cc3)ccc2[nH]1`, under setting [1], the AC50 is 35.5 µM [rising, single point].

Take `COc1ccccc1C(=O)NCCC(=O)Nc1cccnc1`: the AC50 under setting [1] was 0.0562 µM [rising, partial curve, poor fit]. For the compound `COc1cccc(-c2ccc3ncnc(N4CCN(C)CC4)c3c2)c1`, the AC50 is, setting by setting: under setting [1], 17.8 µM [falling, partial curve, poor fit]; under setting [2], 20 µM [falling, partial curve, poor fit].

Take `O=[N+]([O-])c1ccc(N=Cc2sc3ccccc3c2O)cc1`: under setting [2], the concentration at half-maximal activity (AC50) is 0.708 µM [rising, full curve, poor fit]. `N#CC(C#N)=C(N)CSc1cccc[n+]1[O-]`: the concentration at half-maximal activity (AC50) under setting [1] was 10 µM [falling, partial curve, poor fit]. `CCOc1ccc(N(CC(=O)Nc2ccccc2)S(C)(=O)=O)cc1`: the AC50 runs as follows: under setting [1], 3.55 µM [falling, single point]; under setting [2], 3.16 µM [falling, single point]. As for `O=C(Nc1ccccc1O)/C(=C\c1ccccc1)NC(=O)c1ccccc1`, the concentration at half-maximal activity (AC50) under setting [1] is 0.0282 µM [rising, full curve, poor fit]. On to `Cc1ccc(N2C(=O)C3C4C=CC(CNC(=S)N5CCN(c6ccccn6)CC5)(O4)C3C2=O)cc1` (stereo not drawn), for which, under setting [2], the AC50 is 20 µM [rising, single point]. In the case of `O=C(NC1CCCCC1)C(c1ccc2ncccc2c1)N(Cc1cccs1)C(=O)c1cccs1` (stereo not drawn), the AC50 runs as follows: under setting [1], 35.5 µM [falling, single point]; under setting [2], 35.5 µM [falling, single point]. `O=C1CSC(c2ccccc2[N+](=O)[O-])N1c1ccc(O)cc1` (stereo not drawn): the AC50 under setting [2] was 2 µM [falling, partial curve, poor fit].

Consider `CCOC(=O)c1sc(C)c2c1NC(C)(c1cccs1)NC2=O` (stereo not drawn), for which the AC50 under setting [2] is 0.0251 µM [rising, full curve, poor fit]. The same measure, in the same setting: then `CNC(=S)NCCc1ccc(OC)cc1`, with 39.8 µM [falling, partial curve, poor fit]. Take `O=C(NCC1CCCC(CNC(=O)N2CCc3ccccc32)C1)N1CCc2ccccc21` (stereo not drawn): the AC50 under setting [2] was 14.1 µM [rising, single point].
